Reference: US20140010815A1 (JOSAI UNIVERSITY, published 2014)
No constants are given. Whether binding was seen depends on the method and setting. A result given as binding can be weak or reduced; the word gives no strength. No end group written: not given here.

Assays:
Test in all cases: ELISA, histone coated on the plate, 5 ug/mL antibody, absorbance at 405 nm
histone H1 = target: histone H1
histone H2B = target: histone H2B
histone H2A = target: histone H2A
histone H3 = target: histone H3

- binding (histone H1): binds
- binding (histone H2B): binds
- binding (histone H2A): binds
- binding (histone H3): binds
B1: monoclonal antibody (SSVmAb) of Example 1, produced by Mouse-Mouse hybridoma SSV-C 93-3 (antibody, IgG1, V domains shown)
VH: EIQLQQSGAELVKPGASVKISCKASGYSFTGYNMNWVKQSHGKSLEWIGNINPYYGSTSYNQKFKGKATLTVDKSSSTAYMQLNSLTSEDSAVYYCARSPYYSNYWRYFDYWGQGTTLTVSS
VL: QIVLSQSPAILSASPGEKVTMTCRASSSVSYMHWYQQKPGSSPKPWIYATSNLASGVPARFSGSGSGTSYSLTISRVEAEDAATYYCQQWSSNPWTFGGGTKLEIK
notes: Mouse monoclonal antibody purified from hybridoma culture supernatant; light chain amplified with a mouse kappa constant region primer
